# Measurements reported in patent US20250263443A1.
# These are yes or no findings as the source states them, for the method shown. Some binding calls cover weakened binding; strength is not graded here.
# Molecular target: SA11 NSP3 fused to remnant residues of the 2A element (NSP3-2A) expressed by rSA11/NSP3-2A-NoV viruses (simian rotavirus A SA11) (UniProt P03536)
# Test: self-association, summary of the 25 C gel/immunoblot experiment
substance,measurement,value
SA11 NSP3 fused to remnant residues of the 2A element (NSP3-2A) expressed by rSA11/NSP3-2A-NoV viruses (from UniProt P03536 1-315),binding,binds
